# From the supplement of paper PMC4604168 (melanoma cell lines)
# Some of the results follow. Repeats are few or missing, and single values can be far off.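 Cells were imaged in 1,536-well plates, and nuclei stained with an antibody against cleaved PARP were counted against all DNA-stained nuclei to give the apoptosis fraction. Screening doses were chosen to leave most cells alive, and resting and induced cleaved-PARP levels differ strongly between cell lines.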
# Test system: CBRC016 (line from a melanoma biopsy)
# Assay: cleaved PARP positive nuclei fraction relative to DMSO control; melanoma cells; higher = more apoptosis
# Conditions: library dose: low library concentration; 72 h
row,SMILES,cleaved PARP positive nuclei fraction
1,"CC(C)C[C@H](NC(=O)[C@H](Cc1ccccc1)NC(=O)c1cnccn1)B(O)O [Bortezomib] + COC(=O)c1sccc1S(=O)(=O)Nc1ccc(Nc2ccccc2)cc1OC [GSK0660] (first compound 0.001 µM, partner dose 1 µM)",419%
2,"CN1CCN(c2ccc3nc(-c4c(N)c5c(F)cccc5[nH]c4=O)[nH]c3c2)CC1 [Dovitinib] + COc1ccc(COc2ccc(Cc3cnc(N)nc3N)cc2OC)cc1 [GW2580] (first compound 0.1 µM, partner dose 1 µM)",66.8%
3,"Cn1c(=O)n(-c2ccc(C(C)(C)C#N)cc2)c2c3cc(-c4cnc5ccccc5c4)ccc3ncc21 + Cc1cc([N+](=O)[O-])ccc1NS(=O)(=O)c1cc(Cl)ccc1Cl [FH535] (first compound 0.004 µM, partner dose 1 µM)",161%
4,"CCCS(=O)(=O)Nc1ccc(F)c(C(=O)c2c[nH]c3ncc(Cl)cc23)c1F + Oc1nc(-c2ccc(C(F)(F)F)cc2)nc2c1CSCC2 [XAV939] (first compound 0.08 µM, partner dose 2 µM)",20.4%
5,"Nc1nc(F)nc2c1ncn2[C@@H]1O[C@H](CO)[C@@H](O)[C@@H]1O [fludarabine] + COc1ccc(-c2ccc3c(N4CCOCC4)nc(N4C[C@@H](C)O[C@@H](C)C4)nc3n2)cc1CO [KU0063794] (first compound 0.2 µM, partner dose 0.02 µM)",76.8%
6,"CS(=O)(=O)CCNCc1ccc(-c2ccc3ncnc(Nc4ccc(OCc5cccc(F)c5)c(Cl)c4)c3c2)o1 [lapatinib] + O=C(Nc1ccccc1)c1cc([N+](=O)[O-])ccc1Cl [GW9662] (first compound 0.8 µM, partner dose 2 µM)",117%
